# Measurements taken from the odorant receptor screen of Mainland et al. (2015).
# “And” between values parts separate entries of the source, which are not always exact repeats. Equal entries are not always repeated. The list shows a part of the results. Single wells; the ratio to wells without odorant was worked out here, and repeats agree poorly.
# Test system: OR4K17 clone 1420
# Assay: odorant receptor activation (CRE luciferase / Renilla) (fold of no-odor wells); higher = more activation
# Conditions: 100 µM
row,SMILES,odorant receptor activation
1,CCOc1cc(C=O)ccc1O [ethyl vanillin],1.05 and 1.3
2,CCC(C)=O [2-butanone],0.64
3,CS [methanethiol],0.897
4,CCCCOC(C)=O [butyl acetate],0.217

# Test system: OR4K2 clone 1258
# Assay: as above
# Conditions: 100 µM
row,SMILES,odorant receptor activation
1,CCOc1cc(C=O)ccc1O [ethyl vanillin],0.989 and 0.988
2,CCC(C)=O [2-butanone],1.49
3,CS [methanethiol],0.715
4,CCCCOC(C)=O [butyl acetate],0.73

# Test system: OR4K3 clone 1259
# Assay: as above
# Conditions: 100 µM
row,SMILES,odorant receptor activation
1,CCOc1cc(C=O)ccc1O [ethyl vanillin],1.62 and 1.08
2,CCC(C)=O [2-butanone],0.904
3,CS [methanethiol],0.944
4,CCCCOC(C)=O [butyl acetate],0.675

# Test system: OR4K5 clone 1261
# Assay: as above
# Conditions: 100 µM
row,SMILES,odorant receptor activation
1,CCOc1cc(C=O)ccc1O [ethyl vanillin],1.52 and 0.867
2,CCC(C)=O [2-butanone],1.78
3,CS [methanethiol],0.973
4,CCCCOC(C)=O [butyl acetate],0.924

# Test system: OR4L1 R52S clone 1265
# Assay: as above
# Conditions: 100 µM
row,SMILES,odorant receptor activation
1,CCC(C)=O [2-butanone],1.53
2,CS [methanethiol],0.933
3,CCCCOC(C)=O [butyl acetate],0.867

# Test system: OR4M1 clone 1559
# Assay: as above
# Conditions: 100 µM
row,SMILES,odorant receptor activation
1,CCOc1cc(C=O)ccc1O [ethyl vanillin],0.888
2,CCC(C)=O [2-butanone],0.972
3,CS [methanethiol],1.04
4,CCCCOC(C)=O [butyl acetate],1.13

# Test system: OR4M2 clone 1278
# Assay: as above
# Conditions: 100 µM
row,SMILES,odorant receptor activation
1,CCOc1cc(C=O)ccc1O [ethyl vanillin],1.27 and 1.13
2,CCC(C)=O [2-butanone],1.5
3,CS [methanethiol],0.827
4,CCCCOC(C)=O [butyl acetate],0.775

# Test system: OR4N2 clone 1270
# Assay: as above
# Conditions: 100 µM
row,SMILES,odorant receptor activation
1,CCOc1cc(C=O)ccc1O [ethyl vanillin],1.32 and 1.17
2,CCC(C)=O [2-butanone],1.05
3,CS [methanethiol],0.795
4,CCCCOC(C)=O [butyl acetate],0.818

# Test system: OR4N4 clone 1277
# Assay: as above
# Conditions: 100 µM
row,SMILES,odorant receptor activation
1,CCOc1cc(C=O)ccc1O [ethyl vanillin],1.77 and 1.02
2,CCC(C)=O [2-butanone],1.23
3,CS [methanethiol],0.805
4,CCCCOC(C)=O [butyl acetate],0.723

# Test system: OR4N5 clone 1262
# Assay: as above
# Conditions: 100 µM
row,SMILES,odorant receptor activation
1,CCOc1cc(C=O)ccc1O [ethyl vanillin],3.05 and 1.54
2,CCC(C)=O [2-butanone],0.824
3,CS [methanethiol],0.836
4,CCCCOC(C)=O [butyl acetate],0.8

# Test system: OR4P4 R231C clone 1398
# Assay: as above
# Conditions: 100 µM
row,SMILES,odorant receptor activation
1,CCOc1cc(C=O)ccc1O [ethyl vanillin],0.802 and 1.12
2,CCC(C)=O [2-butanone],0.979
3,CS [methanethiol],0.841
4,CCCCOC(C)=O [butyl acetate],0.213

# Test system: OR4P4 clone 1139
# Assay: as above
# Conditions: 100 µM
row,SMILES,odorant receptor activation
1,CCOc1cc(C=O)ccc1O [ethyl vanillin],1.45 and 1.17
2,CCC(C)=O [2-butanone],0.723
3,CS [methanethiol],1.03
4,CCCCOC(C)=O [butyl acetate],1.17

# Test system: OR4Q3 clone 1411
# Assay: as above
# Conditions: 100 µM
row,SMILES,odorant receptor activation
1,CCOc1cc(C=O)ccc1O [ethyl vanillin],1.37 and 1.47
2,CCC(C)=O [2-butanone],0.696
3,CS [methanethiol],1.03
4,CCCCOC(C)=O [butyl acetate],0.302

# Test system: OR4S1 clone 1283
# Assay: as above
# Conditions: 100 µM
row,SMILES,odorant receptor activation
1,CCOc1cc(C=O)ccc1O [ethyl vanillin],1.01 and 0.949
2,CCC(C)=O [2-butanone],0.992
3,CS [methanethiol],0.78
4,CCCCOC(C)=O [butyl acetate],0.665

# Test system: OR4S2 clone 1175
# Assay: as above
# Conditions: 100 µM
row,SMILES,odorant receptor activation
1,CCOc1cc(C=O)ccc1O [ethyl vanillin],2.39 and 0.922
2,CCC(C)=O [2-butanone],0.912
3,CS [methanethiol],0.97
4,CCCCOC(C)=O [butyl acetate],1.28

# Test system: OR4X2 clone 1193
# Assay: as above
# Conditions: 100 µM
row,SMILES,odorant receptor activation
1,CCOc1cc(C=O)ccc1O [ethyl vanillin],1.74 and 1.13
2,CCC(C)=O [2-butanone],1.07
3,CS [methanethiol],1.26
4,CCCCOC(C)=O [butyl acetate],1.09
